Laboratory results as given in article PMC9110524.
Results are given in words; binding and its absence hold for the method and conditions named. In cells and extracts the contact can be indirect. Some binding calls cover weakened binding; strength is not graded here.

Amino acid sequences for entries named in this document (tags omitted).
UniProt Q9NRD5: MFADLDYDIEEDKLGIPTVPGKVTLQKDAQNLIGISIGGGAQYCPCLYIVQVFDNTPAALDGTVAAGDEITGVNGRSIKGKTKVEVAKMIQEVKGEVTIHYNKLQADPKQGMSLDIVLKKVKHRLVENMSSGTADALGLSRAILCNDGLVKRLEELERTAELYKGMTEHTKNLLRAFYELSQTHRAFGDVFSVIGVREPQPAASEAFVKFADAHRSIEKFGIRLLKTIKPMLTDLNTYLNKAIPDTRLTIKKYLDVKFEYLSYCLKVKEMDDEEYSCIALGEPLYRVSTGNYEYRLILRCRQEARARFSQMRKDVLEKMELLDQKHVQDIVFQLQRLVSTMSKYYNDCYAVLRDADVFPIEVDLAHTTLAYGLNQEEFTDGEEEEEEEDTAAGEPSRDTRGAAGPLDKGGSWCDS

Molecular target: T1, nephrin (wild-type, human cDNA) (human) (UniProt O60500)
T1 sequence: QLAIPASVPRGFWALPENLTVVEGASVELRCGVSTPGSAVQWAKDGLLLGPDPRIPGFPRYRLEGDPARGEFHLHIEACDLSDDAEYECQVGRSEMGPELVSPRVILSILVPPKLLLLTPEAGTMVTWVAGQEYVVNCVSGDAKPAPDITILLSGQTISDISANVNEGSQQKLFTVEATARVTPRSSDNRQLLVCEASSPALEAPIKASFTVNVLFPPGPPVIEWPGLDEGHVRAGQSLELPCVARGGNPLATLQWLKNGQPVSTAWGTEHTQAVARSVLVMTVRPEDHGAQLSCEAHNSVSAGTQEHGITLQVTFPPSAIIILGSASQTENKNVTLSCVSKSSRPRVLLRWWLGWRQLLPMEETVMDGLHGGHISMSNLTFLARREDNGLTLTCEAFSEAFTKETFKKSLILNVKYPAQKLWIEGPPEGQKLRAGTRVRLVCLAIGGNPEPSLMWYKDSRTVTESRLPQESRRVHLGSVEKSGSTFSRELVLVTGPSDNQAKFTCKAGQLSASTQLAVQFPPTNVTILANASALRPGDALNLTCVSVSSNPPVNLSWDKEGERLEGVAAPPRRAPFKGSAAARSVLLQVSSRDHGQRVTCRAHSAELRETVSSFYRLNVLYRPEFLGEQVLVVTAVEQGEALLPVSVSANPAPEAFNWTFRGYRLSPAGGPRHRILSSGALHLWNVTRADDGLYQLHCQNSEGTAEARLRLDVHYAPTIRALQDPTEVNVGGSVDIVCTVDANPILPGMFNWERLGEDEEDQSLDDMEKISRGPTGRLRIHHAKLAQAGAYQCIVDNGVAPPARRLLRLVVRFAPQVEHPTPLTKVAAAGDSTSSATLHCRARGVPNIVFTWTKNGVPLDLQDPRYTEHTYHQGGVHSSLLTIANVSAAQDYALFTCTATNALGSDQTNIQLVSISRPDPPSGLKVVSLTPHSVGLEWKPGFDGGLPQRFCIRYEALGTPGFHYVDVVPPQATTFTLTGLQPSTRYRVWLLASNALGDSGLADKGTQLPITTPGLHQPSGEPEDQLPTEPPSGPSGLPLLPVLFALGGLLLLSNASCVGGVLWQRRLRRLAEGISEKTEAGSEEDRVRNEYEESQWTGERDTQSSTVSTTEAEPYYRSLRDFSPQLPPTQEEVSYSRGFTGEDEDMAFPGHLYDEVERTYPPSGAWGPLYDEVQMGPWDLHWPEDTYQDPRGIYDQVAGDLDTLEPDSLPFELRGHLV
Assay: co-IP; HEK293T overexpressing untagged PKCα, flag-tagged PICK1 and wild-type nephrin or nephrin S1146A; 1% Triton X-100 lysis buffer; nephrin immobilised, PKCα and PICK1 detected by Western blot; densitometry of IP signal over lysate signal, wild-type nephrin normalised to 100%

Row | binding | Substance
1 | binds | protein interacting with c kinase-1 (from UniProt Q9NRD5 1-415)
2 | binds | protein kinase C alpha (from UniProt P17252 1-672) (enzyme)
